Some of the results follow.

The assay deals with T1, CTL2-GFP (C. trachomatis L2/434/Bu, GFP-expressing).
T1 construct: L2/434/Bu, GFP-expressing
Details: species or system HeLa; Intracellular C. trachomatis growth in HeLa cells, bulk GFP fluorescence relative to DMSO. The settings on record: bulk GFP, single well; 28.5 h, 10 µM; inhibitor.
Take `Oc1cccc2ccc(/C=N/N=C/c3ccc4cccc(O)c4n3)nc12` [CBK261127]: the “% of control remaining” value is reported as 100%.
The result for `Cc1ccc(CNC(=O)Cn2nnc(-c3ccc(CNCC(F)(F)F)cc3)n2)cc1` [CBK153204T] reads 108.408%; that for `O=c1[nH]nc2ccc(S(=O)(=O)N3CCCCC3)cn12` [CBK288459], 150.083%.
As for `CC(C)CCNC(=O)N1CCC(C(=O)O)CC1` [CBK156075], the figure is 119.948%; as for `Nn1cnn2c(SCc3ccccc3)nnc12` [CBK263188], 94.8324%.
As for `Cc1c(C(=O)N2CCC(F)(CO)C2)nnn1-c1ccc2ncccc2c1` (centres unmarked) [CBK304483], the figure is 116.988%.
Consider `O=S(=O)(c1ccccc1)N1CCN(c2cnccn2)CC1` [CBK287839], for which the “% of control remaining” value is on record as 108.05%.
For the compound `COc1ccc(CN2C(=O)COC[C@@H]2[C@H](O)c2ccc(NC(C)=O)cc2)cc1` [CBK289674], the “% of control remaining” value was 144.086%.
As for `CCC1C(=O)NCCN1C(=O)c1ccc2c(c1)ncn2C` (centres unmarked) [CBK281709], the figure is 134.695%; as for `Cc1ccn2cc(CNC(=O)CN3CCOc4ccccc4C3)nc2c1` [CBK307518], 115.226%; as for `S=C(Nc1cccnc1)N[C@H]1CC[C@@]2(c3cccnc3)CCN(Cc3ccccc3)[C@H]2C1` [CBK028450], 100.761%.
As for `Cc1cc2c(s1)c1cnn(CC(=O)NCC3CC3)c(=O)c1n2C` [CBK284222], the figure is 147.664%; as for `Cn1nc(C(F)(F)F)cc1C1CCCCCN1S(C)(=O)=O` (centres unmarked) [CBK284673], 125.997%.
As for `CS(=O)(=O)Nc1cc2ccccc2c(-c2cccc(C(F)(F)F)c2)n1` [CBK085754], the figure is 110.937%; as for `Clc1ccc(COc2nccnc2OC2CCN(Cc3ccc4c(c3)OCO4)CC2)cc1Cl` [CBK083109T], 89.4821%.
Take `CCOC(=O)Cn1nc([N+](=O)[O-])c(Cl)c1C` [CBK269605]: the “% of control remaining” value was determined as 126.318%.
The result for `CC(NC(=O)CN(c1ccc(Cl)c(Cl)c1)S(=O)(=O)c1ccccc1)c1ccccc1` (centres unmarked) [CBK263781] reads 133.078%.
As for `COc1ccc(NC(=O)N[C@H]2C[C@@H](c3nc(-c4ccc(OC)cc4)no3)N(C)C2)cc1` [CBK288862], the figure is 146.112%; as for `N=C1NC(=O)/C(=C/c2ccc(OS(=O)(=O)c3ccc4ccccc4c3)cc2)S1` [CBK263605], 106.101%; as for `CN1C[C@]2(CC[C@@H](C(=O)N3CCCC3)CC2)Oc2ccccc2C1=O` [CBK284886], 131.109%.
The result for `CC(NC1CCN(Cc2ccccc2)CC1)C12CC3CC(CC(c4ccc(Cl)cc4)(C3)C1)C2` (centres unmarked) [CBK262877] reads 95.9193%; that for `Cc1ccnn1C(C)C(=O)NC(Cc1ccsc1)c1nccs1` (centres unmarked) [CBK285141], 113.809%; that for `O=C(O)CCc1nn2c3ccccc3n(CC(=O)c3cccs3)c2nc1=O` [CBK267518], 134.4%.
For `CC(C)(C)OC(=O)NCC(N)=S` [CBK007979], the “% of control remaining” value was 117.493%.
As for `C=Cn1cc(CN2C3CCC2CC(O)(c2ccc(C)cc2)C3)c(C)n1` (centres unmarked) [CBK283015], the figure is 114.858%.
The result for `O=C(O)c1cccc2c1C(=O)N(Cc1cccs1)C2` [CBK291246] reads 149.406%.
As for `COC(=O)CN(c1ccc(Cl)cc1Cl)S(C)(=O)=O` [CBK267654], the figure is 95.1019%.
As for `O=C(Nc1ccccc1C(=O)N1CCN(Cc2ccccc2)CC1)c1ccccn1` [CBK263512], the “% of control remaining” value was determined as 109.308%.
The result for `COCCN(Cc1ccncc1)C(=O)c1cnc2ccnn2c1C` [CBK306965] reads 125.173%; that for `O=C(Nc1ccccc1C(=O)O)c1ccccc1O` [CBK012116], 66.262%; that for `O=c1[nH]c(SCc2c(Cl)cccc2Cl)nc2ccnn12` [CBK116145], 106.412%.
As for `COc1cc(C2N(Cc3ccccc3)CCCN2Cc2ccccc2)c([N+](=O)[O-])cc1OC` [CBK265224], the figure is 119.706%; as for `CCC(Cn1ccnc1)NS(=O)(=O)c1cc(-n2cccn2)ccc1OC` (centres unmarked) [CBK307483], 126.756%.
As for `Cc1ccc(S(=O)(=O)Nc2c(C(=O)N3CCN(C)CC3)sc3ncccc23)cc1[N+](=O)[O-]` [CBK050025], the figure is 132.963%; as for `CC(NC(=O)Cn1c(-c2nonc2N)nc2ccccc21)c1ccccc1` (centres unmarked) [CBK266006], 159.613%.
Regarding `Cc1ccc(Cl)cc1NC(=O)c1ccc(NCCN2C(=O)C3C4C=CC(C4)C3C2=O)c([N+](=O)[O-])c1` (centres unmarked) [CBK268357], the “% of control remaining” value was 154.616%.
The result for `COc1ccccc1-c1nccnc1N(C)Cc1ccccc1` [CBK036774] reads 176.376%; that for `CNC(=O)C1(Cc2ccccc2-c2cccs2)CCN(C(=O)Cc2ccccc2)CC1` [CBK285746], 130.544%; that for `O=C(C1=C(O)C(=O)N(Cc2cccnc2)C1c1cccnc1)c1ccccc1` (centres unmarked) [CBK264522], 126.176%.
As for `Cc1ccc(C(=O)Nc2nc3ccc(S(=O)(=O)N(C)C)cc3s2)cc1` [CBK287603], the figure is 136.499%.
As for `Cc1cc(NC(=O)CCCc2ccccc2)nc2c1c(=O)oc1ccccc12` [CBK291204], the figure is 84.3118%.
With `COC(=O)c1c(NC(=S)NCc2ccc(S(N)(=O)=O)cc2)sc2c1CCC(C)C2` (centres unmarked) [CBK267039], the “% of control remaining” value is 148.651%.
On to `CC(C)(C)C(=O)Nc1ccc(-c2nc3ccc(Cc4ccc5nc(-c6ccc(NC(=O)C(C)(C)C)cc6)oc(=O)c5c4)cc3c(=O)o2)cc1` [CBK261396], for which the “% of control remaining” value is reported as 102.061%.
Regarding `CCc1nc2c(OCc3ccccc3OC)cccn2c1N(C)C(=O)C(C)C` [CBK147763], the “% of control remaining” value is on record as 93.9236%.
The result for `CCNC(=O)O[C@@H]1CO[C@H]2[C@@H]1OC[C@@H]2NS(=O)(=O)c1ccccc1C#N` [CBK289474] reads 135.181%; that for `CC(=O)Cc1c(C(=O)O)c(C)nn1-c1ccccc1` [CBK286779], 127.112%.
As for `COc1ccc(OC(C)C(=O)Nc2ccccc2-c2ccccc2)cc1` (centres unmarked) [CBK266661], the “% of control remaining” value amounted to 93.9685%.
As for `N#CCCSCc1ccc(C(=O)O)o1` [CBK265858], the figure is 101.519%; as for `Cc1nc(N)sc1-c1csc(Nc2ncccn2)n1` [CBK263307B], 89.756%; as for `CC(N)C(=O)Nc1ccccc1-c1ccccc1` (centres unmarked) [CBK267700], 131.625%.
The result for `COC(=O)c1ccc(NC(=O)c2ccc(-n3cccn3)cc2)cc1` [CBK269486] reads 127.826%.
The result for `CC(=O)c1cc(C(=O)N2CCC(O)(c3cccc(C)c3)CC2)cs1` [CBK282531] reads 114.604%.
Consider `COc1ccc(C(NC(=O)c2cc3ccccc3[nH]2)C2CC2)cc1` (centres unmarked) [CBK297896], for which the “% of control remaining” value is listed as 114.444%.
As for `O=C(CCN1CCCCC1)N1CCc2ccccc21` [CBK200413], the figure is 117.75%; as for `Cn1ccnc1C1(O)CCN(C(=O)Nc2ccc(F)cc2)CC1` [CBK282277], 138.925%; as for `NS(=O)(=O)c1ccc(NC(=O)C2Cc3ccccc3CN2S(=O)(=O)c2ccc(F)cc2)cc1` (centres unmarked) [CBK265208], 147.207%.
As for `O=C(COc1ccc(S(=O)(=O)NC2CCCCC2)cc1)N1CCN(c2cccc(Cl)c2)CC1` [CBK265948], the figure is 101.276%; as for `O=C(Nc1ccsc1C(=O)O)c1ccc(Cl)cc1` [CBK076902], 171.564%.
The result for `CC(=O)N1CCC(n2c(C3CC3)nc3sc(C)c(C)c3c2=O)CC1` [CBK282369] reads 99.1715%; that for `Cc1cc(Br)ccc1C(=O)NCCc1c[nH]c2ccc(Cl)cc12` [CBK159771], 29.2627%.
For `O=C(c1c[nH]c2ccccc12)C(O)C(c1ccccc1)N1CCCCC1` (centres unmarked) [CBK267799], the “% of control remaining” value is 118.088%.
The result for `Cc1noc(C)c1NC(=O)c1c(C)noc1C` [CBK200305] reads 99.1354%; that for `O=C(NCC1(c2ccccc2)CCCC1)c1ccc(=O)n(CC(=O)N2CCCCC2)c1` [CBK286082], 122.645%.
The result for `O=C1COc2ccccc2C(=O)N[C@@H]2CCOC[C@@H]2C/C=C/C[C@H]2[C@H](CCCN2CCO)N1` [CBK292149] reads 100%; that for `FC(F)(F)c1nc2ccccc2nc1Sc1nc[nH]n1` [CBK093808], 106.415%.
As for `CCCNc1nc(-c2ccc(C)c(C)c2)cn2ccnc12` [CBK066627], the figure is 147.151%; as for `CCCC(=O)c1ccc(S(=O)(=O)N2CCCN(Cc3cccc4cccnc34)CC2)cc1` [CBK062909], 129.516%; as for `CC1=C(C)CC(C(=O)Nc2ccc3c(c2)oc2ccccc23)C(C(=O)O)C1` (centres unmarked) [CBK263533], 118.101%.
With `COCC(=O)NC(C)c1nc2ccccc2n1Cc1ccccc1C` (centres unmarked) [CBK269885], the “% of control remaining” value is reported as 128.274%.
The result for `COc1ccc(-c2cnc(NCC3CC3)c(C(=O)N3CCN(C)CC3)c2)cc1` [CBK076327] reads 97.5923%; that for `O=C(c1ccc2[nH]ccc2c1)N1CCN(CC2CCOC2)CC1` (centres unmarked) [CBK304866], 96.3941%; that for `O=C(CSc1nnc(-c2ccc(Cl)cc2Cl)[nH]1)Nc1ccc(F)cc1` [CBK267651], 122.017%.
As for `CC(NC(=O)CCc1ccncc1)c1nc2ccccc2s1` (centres unmarked) [CBK281666], the figure is 110.109%.
The result for `c1ccc(CSc2ncnc3c2oc2ccccc23)cc1` [CBK287398] reads 156.907%; that for `COc1cccc([C@H]2CN(C(=O)c3ccccc3)[C@@H]3CCN(Cc4ccccc4)C[C@H]23)c1` [CBK285624], 114.747%.
Take `CN(CC(O)CO)C(=O)c1coc(COc2cccc(F)c2)n1` (centres unmarked) [CBK306854]: the “% of control remaining” value stood at 106.787%.
The result for `COc1ccc2[nH]cc(CCNC(=O)c3ccc(C)nc3N3CCOCC3)c2c1` [CBK106203] reads 128.842%.

Source of the values: publication PMC12040169 (PLOS Biology, 2025).
